PubChem BioAssay AID1159578, Peter MacCallum Cancer Centre, 2015
This is a random part of about 18,000 reagents tested. About 1,030 of all reagents (5.7%) count as active. 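Inactive calls also include pools with fewer than 3300 nuclei, whose migration was not assessed.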 The raw values are shown without normalisation. Entries without a mark were called inactive.

Aim: 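siRNA pools altering how lymphatic endothelial cells close a scratch wound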 (primary screen)
Cells: human lymphatic endothelial cells
Knock-down reagent: siRNA pool against human genes, 40 nM
Duration: 48 h after transfection
Measured: 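High-content imaging of dye-stained cells in a scratch assay measures filled wound area and nuclei per well; duplicate means given as ratio to mock and robust z-score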
Scale: migration robust z-score: higher = faster migration into the scratch; migration relative to mock: higher = more scratch area covered than mock; nuclei per well: higher = more cells in the well
Call rule: 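Migration changed when robust z exceeds 2 or falls below -2 and mean nuclei number is at least 3300; otherwise not called changed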
Meaning of the calls: active = migration changed; inactive = no migration change, or too few cells

| gene symbol | migration robust z-score | migration class with cell-count check | migration relative to mock | nuclei per well, duplicate mean |
| --- | --- | --- | --- | --- |
| AIG1 (androgen induced 1) | -0.52 | migration z between -2 and 2; enough cells | 0.75 | 5890 |
| NACC2 (NACC family member 2) | 1.27 | migration z between -2 and 2; enough cells | 1.22 | 5100 |
| OR5H15 (olfactory receptor family 5 subfamily H member 15) | 0.24 | migration z between -2 and 2; enough cells | 0.94 | 5518 |
| SNAPC4 (small nuclear RNA activating complex polypeptide 4) | -1.03 | migration z between -2 and 2; enough cells | 0.62 | 3760 |
| DDX39A (DExD-box helicase 39A) | 1.53 | migration z between -2 and 2; enough cells | 1.1 | 5863 |
| SCRT2 (scratch family transcriptional repressor 2) | -0.11 | under 3300 nuclei; migration not judged | 0.86 | 2767 |
| SERPINA5 (serpin family A member 5) | -0.13 | migration z between -2 and 2; enough cells | 0.78 | 6154 |
| ZNF593 (zinc finger protein 593) | -0.18 | migration z between -2 and 2; enough cells | 0.84 | 5514 |
| SACK1F (scaffolding CK1 anchoring protein F) | 0.18 | migration z between -2 and 2; enough cells | 0.93 | 5238 |
| ZRANB1 (zinc finger RANBP2-type containing 1) | -0.6 | migration z between -2 and 2; enough cells | 0.69 | 5444 |
| KRT37 (keratin 37) | -0.78 | migration z between -2 and 2; enough cells | 0.68 | 6343 |
| DIRAS1 (DIRAS family GTPase 1) | 0.05 | migration z between -2 and 2; enough cells | 0.82 | 8044 |
| UCK2 (uridine-cytidine kinase 2) | -1.17 | migration z between -2 and 2; enough cells | 0.58 | 3623 |
| TNNI3 (troponin I3, cardiac type) | 0.12 | migration z between -2 and 2; enough cells | 0.92 | 6710 |
| CAPZB (capping actin protein of muscle Z-line subunit beta) | -1.18 | migration z between -2 and 2; enough cells | 0.58 | 3932 |
| NFKB1 (nuclear factor kappa B subunit 1) | 0.72 | migration z between -2 and 2; enough cells | 0.94 | 5904 |
| ALOX12B (arachidonate 12-lipoxygenase, 12R type) | 0.1 | migration z between -2 and 2; enough cells | 0.82 | 5208 |
| SMAD3 (SMAD family member 3) | 0.08 | migration z between -2 and 2; enough cells | 0.82 | 5320 |
| PRR11 (proline rich 11) | 0.08 | migration z between -2 and 2; enough cells | 0.91 | 5581 |
| PTPRE (protein tyrosine phosphatase receptor type E) | -1.35 | migration z between -2 and 2; enough cells | 0.54 | 3913 |
| SHC4 (SHC adaptor protein 4) | -0.69 | migration z between -2 and 2; enough cells | 0.7 | 5178 |
| BHMT2 (betaine--homocysteine S-methyltransferase 2) | 0.62 | migration z between -2 and 2; enough cells | 0.92 | 5715 |
| C9orf163 (chromosome 9 putative open reading frame 163) | -0.39 | migration z between -2 and 2; enough cells | 0.78 | 5850 |
| DYRK4 (dual specificity tyrosine phosphorylation regulated kinase 4) | 1.15 | migration z between -2 and 2; enough cells | 1.02 | 6406 |
| THBS2 (thrombospondin 2) | 2.82 (active) | migration z above 2; enough cells | 1.62 | 5865 |
| ZDHHC18 (zDHHC palmitoyltransferase 18) | 0.57 | migration z between -2 and 2; enough cells | 1.04 | 5832 |
| CEP83 (centrosomal protein 83) | -0.54 | migration z between -2 and 2; enough cells | 0.74 | 6377 |
| SYNPR (synaptoporin) | 0.6 | migration z between -2 and 2; enough cells | 1.04 | 6214 |
| NOB1 (NIN1 (RPN12) binding protein 1 homolog) | 0.15 | migration z between -2 and 2; enough cells | 0.92 | 6258 |
| TGM1 (transglutaminase 1) | 0.26 | migration z between -2 and 2; enough cells | 0.86 | 5233 |
| APBB2 (amyloid beta precursor protein binding family B member 2) | 0.66 | migration z between -2 and 2; enough cells | 1.06 | 5860 |
| DUOXA1 (dual oxidase maturation factor 1) | -0.46 | migration z between -2 and 2; enough cells | 0.76 | 6322 |
| TEKT3 (tektin 3) | -0.26 | migration z between -2 and 2; enough cells | 0.82 | 5782 |
| ACSM3 (acyl-CoA synthetase medium chain family member 3) | -0.5 | migration z between -2 and 2; enough cells | 0.71 | 5394 |
| TRIM8 (tripartite motif containing 8) | 0.72 | migration z between -2 and 2; enough cells | 0.94 | 4707 |
| SPRN (shadow of prion protein) | 0.43 | migration z between -2 and 2; enough cells | 1 | 6115 |
| DSTN (destrin, actin depolymerizing factor) | 1.6 | migration z between -2 and 2; enough cells | 1.3 | 6214 |
| AEBP1 (AE binding protein 1) | 0.7 | migration z between -2 and 2; enough cells | 0.94 | 5908 |
| SGCG (sarcoglycan gamma) | 2.02 (active) | migration z above 2; enough cells | 1.41 | 5991 |
| TRAM1L1 (translocation associated membrane protein 1 like 1) | 0.32 | migration z between -2 and 2; enough cells | 0.97 | 5052 |
| VKORC1L1 (vitamin K epoxide reductase complex subunit 1L1) | 0.26 | migration z between -2 and 2; enough cells | 0.96 | 3672 |
| TNFRSF17 (TNF receptor superfamily member 17) | -0.89 | migration z between -2 and 2; enough cells | 0.66 | 4690 |
| MRPL43 (mitochondrial ribosomal protein L43) | 1.45 | migration z between -2 and 2; enough cells | 1.08 | 6241 |
| SVOP (SV2 related protein) | 0.08 | migration z between -2 and 2; enough cells | 0.82 | 5545 |
| RFPL3 (ret finger protein like 3) | 0.72 | migration z between -2 and 2; enough cells | 0.94 | 6735 |
| COL18A1-AS1 (COL18A1 antisense RNA 1) | -0.9 | migration z between -2 and 2; enough cells | 0.65 | 5526 |
| UGT1A6 (UDP glucuronosyltransferase family 1 member A6) | 0.13 | migration z between -2 and 2; enough cells | 0.83 | 6016 |
| TNFRSF4 (TNF receptor superfamily member 4) | -0.5 | migration z between -2 and 2; enough cells | 0.71 | 6606 |
| KCNG1 | 2.34 (active) | migration z above 2; enough cells | 1.25 | 5392 |
| NFYB (nuclear transcription factor Y subunit beta) | 1.09 | migration z between -2 and 2; enough cells | 1.02 | 5530 |
| TBCB (tubulin folding cofactor B) | -2.59 (active) | migration z below -2; enough cells | 0.2 | 4032 |
| SGTB | 0.88 | migration z between -2 and 2; enough cells | 1.12 | 7140 |
| KLF12 (KLF transcription factor 12) | -0.93 | migration z between -2 and 2; enough cells | 0.62 | 5380 |
| KIAA0825 | 1.59 | migration z between -2 and 2; enough cells | 1.3 | 5498 |
| ZNF701 (zinc finger protein 701) | -0.11 | migration z between -2 and 2; enough cells | 0.86 | 6515 |
| KCNU1 (potassium calcium-activated channel subfamily U member 1) | -1.22 | migration z between -2 and 2; enough cells | 0.57 | 6068 |
| PDCD11 (programmed cell death 11) | -0.91 | migration z between -2 and 2; enough cells | 0.65 | 5410 |
| MOK (MOK protein kinase) | -1.43 | migration z between -2 and 2; enough cells | 0.53 | 3502 |
| LIG4 (DNA ligase 4) | -1.2 | migration z between -2 and 2; enough cells | 0.57 | 5952 |
| DYNLT1 (dynein light chain Tctex-type 1) | 0.84 | migration z between -2 and 2; enough cells | 1.1 | 7196 |
| CEMIP2 (cell migration inducing hyaluronidase 2) | 0.79 | migration z between -2 and 2; enough cells | 1.09 | 6656 |
| GPALPP1 (GPALPP motifs containing 1) | -0.15 | migration z between -2 and 2; enough cells | 0.85 | 7176 |
| TTLL6 (tubulin tyrosine ligase like 6) | -0.46 | migration z between -2 and 2; enough cells | 0.76 | 5422 |
| HAGH (hydroxyacylglutathione hydrolase) | -1.04 | migration z between -2 and 2; enough cells | 0.6 | 4063 |
| SCAPER (S-phase cyclin A associated protein in the ER) | -0.03 | migration z between -2 and 2; enough cells | 0.88 | 5782 |
| FANCA (FA complementation group A) | -0.21 | migration z between -2 and 2; enough cells | 0.76 | 5274 |
| SPX (spexin hormone) | -2.04 (active) | migration z below -2; enough cells | 0.36 | 6053 |
| KLRC2 (killer cell lectin like receptor C2) | 1.06 | migration z between -2 and 2; enough cells | 1.16 | 6133 |
| SIGLEC7 (sialic acid binding Ig like lectin 7) | 1.62 | migration z between -2 and 2; enough cells | 1.31 | 6412 |
| CCNQ (cyclin Q) | -0.24 | migration z between -2 and 2; enough cells | 0.82 | 6796 |
| ZNF575 (zinc finger protein 575) | 0.56 | migration z between -2 and 2; enough cells | 1.03 | 5634 |
| ZBED1 (zinc finger BED-type containing 1) | -0.22 | migration z between -2 and 2; enough cells | 0.83 | 6262 |
| CCDC28B (coiled-coil domain containing 28B) | 0.02 | migration z between -2 and 2; enough cells | 0.89 | 6400 |
